{"source": "the supplement of paper PMC8728848", "test_in_all_cases": "glycan array binding signal (z-score within array); higher = stronger binding", "settings_in_all_cases": "glycan notation: IUPAC condensed, linker removed", "key": {"Gal(a1-6)Glc": {"target": "Gal(a1-6)Glc", "procedure,_shortened": "(§1)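 Columns mapping to the same glycan were averaged after glycan names were converted to IUPAC-condensed notation. The data come from 3228 arrays in the Consortium for Functional Glycomics database, limited to those with an available protein sequence. Binding is reported as a within-array Z-score averaged across arrays of one protein sequence and across linkers.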"}, "Gal(b1-2)Gal": {"target": "Gal(b1-2)Gal", "procedure,_shortened": "as §1"}, "Gal(b1-3)Gal": {"target": "Gal(b1-3)Gal", "procedure,_shortened": "as §1"}, "Gal(b1-3)Gal(b1-4)GlcNAc": {"target": "Gal(b1-3)Gal(b1-4)GlcNAc", "procedure,_shortened": "as §1"}, "Gal(b1-3)GalNAc": {"target": "Gal(b1-3)GalNAc", "procedure,_shortened": "as §1"}, "[1]": {"target": "Gal(b1-3)GalNAc(a1-3)[Fuc(a1-2)]Gal(b1-4)Glc", "procedure,_shortened": "as §1"}, "[2]": {"target": "Gal(b1-3)GalNAc(a1-3)[Fuc(a1-2)]Gal(b1-4)GlcNAc", "procedure,_shortened": "as §1"}, "Gal(b1-3)GalNAc(b1-3)Gal": {"target": "Gal(b1-3)GalNAc(b1-3)Gal", "procedure,_shortened": "as §1"}, "[3]": {"target": "Gal(b1-3)GalNAc(b1-3)Gal(a1-4)Gal(b1-4)Glc", "procedure,_shortened": "as §1"}, "[4]": {"target": "Gal(b1-3)GalNAc(b1-4)Gal(b1-4)Glc", "procedure,_shortened": "as §1"}, "[5]": {"target": "Gal(b1-3)GalNAc(b1-4)[Neu5Ac(a2-3)]Gal(b1-4)Glc", "procedure,_shortened": "as §1"}, "Gal(b1-3)GlcNAc": {"target": "Gal(b1-3)GlcNAc", "procedure,_shortened": "as §1"}, "[6]": {"target": "Gal(b1-3)GlcNAc(a1-3)Gal(b1-4)GlcNAc", "procedure,_shortened": "as §1"}, "[7]": {"target": "Gal(b1-3)GlcNAc(a1-6)Gal(b1-4)GlcNAc", "procedure,_shortened": "as §1"}, "Gal(b1-3)GlcNAc(b1-2)Man": {"target": "Gal(b1-3)GlcNAc(b1-2)Man", "procedure,_shortened": "as §1"}, "[8]": {"target": "Gal(b1-3)GlcNAc(b1-2)Man(a1-3)[Gal(b1-3)GlcNAc(b1-2)Man(a1-6)]Man(b1-4)GlcNAc(b1-4)GlcNAc", "procedure,_shortened": "as §1"}, "[9]": {"target": "Gal(b1-3)GlcNAc(b1-2)Man(a1-3)[Gal(b1-3)GlcNAc(b1-2)Man(a1-6)]Man(b1-4)GlcNAc(b1-4)[Fuc(a1-6)]GlcNAc", "procedure,_shortened": "as §1"}, "[10]": {"target": "Gal(b1-3)GlcNAc(b1-2)Man(a1-3)[GlcNAc(b1-4)][Gal(b1-3)GlcNAc(b1-2)Man(a1-6)]Man(b1-4)GlcNAc(b1-4)GlcNAc", "procedure,_shortened": "as §1"}, "[11]": {"target": "Gal(b1-3)GlcNAc(b1-2)[Gal(b1-3)GlcNAc(b1-6)]Man(a1-6)[Gal(b1-3)GlcNAc(b1-2)Man(a1-3)]Man(b1-4)GlcNAc(b1-4)GlcNAc", "procedure,_shortened": "as §1"}, "[12]": {"target": "Gal(b1-3)GlcNAc(b1-3)Gal(b1-3)GlcNAc", "procedure,_shortened": "as §1"}, "[13]": {"target": "Gal(b1-3)GlcNAc(b1-3)Gal(b1-4)Glc", "procedure,_shortened": "as §1"}, "[14]": {"target": "Gal(b1-3)GlcNAc(b1-3)Gal(b1-4)GlcNAc", "procedure,_shortened": "as §1"}, "[15]": {"target": "Gal(b1-3)GlcNAc(b1-3)Gal(b1-4)GlcNAc(b1-2)Man(a1-3)[Gal(b1-3)GlcNAc(b1-3)Gal(b1-4)GlcNAc(b1-2)Man(a1-6)]Man(b1-4)GlcNAc(b1-4)GlcNAc", "procedure,_shortened": "as §1"}, "[16]": {"target": "Gal(b1-3)GlcNAc(b1-3)Gal(b1-4)GlcNAc(b1-2)[Gal(b1-3)GlcNAc(b1-3)Gal(b1-4)GlcNAc(b1-6)]Man(a1-6)[Gal(b1-3)GlcNAc(b1-3)Gal(b1-4)GlcNAc(b1-2)Man(a1-3)]Man(b1-4)GlcNAc(b1-4)[Fuc(a1-6)]GlcNAc", "procedure,_shortened": "as §1"}, "[17]": {"target": "Gal(b1-3)GlcNAc(b1-3)Gal(b1-4)GlcNAc(b1-3)Gal(b1-4)GlcNAc(b1-2)[Gal(b1-3)GlcNAc(b1-3)Gal(b1-4)GlcNAc(b1-3)Gal(b1-4)GlcNAc(b1-6)]Man(a1-6)[Gal(b1-3)GlcNAc(b1-3)Gal(b1-4)GlcNAc(b1-3)Gal(b1-4)GlcNAc(b1-2)Man(a1-3)]Man(b1-4)GlcNAc(b1-4)[Fuc(a1-6)]GlcNAc", "procedure,_shortened": "as §1"}, "[18]": {"target": "Gal(b1-3)GlcNAc(b1-3)Gal(b1-4)GlcNAc(b1-6)[Gal(b1-3)GlcNAc(b1-3)]Gal(b1-4)Glc", "procedure,_shortened": "as §1"}, "[19]": {"target": "Gal(b1-3)GlcNAc(b1-3)Gal(b1-4)[Fuc(a1-3)]GlcNAc", "procedure,_shortened": "as §1"}, "[20]": {"target": "Gal(b1-3)GlcNAc(b1-3)Gal(b1-4)[Fuc(a1-3)]GlcNAc(b1-6)[Gal(b1-3)GlcNAc(b1-3)]Gal(b1-4)Glc", "procedure,_shortened": "as §1"}, "[21]": {"target": "Gal(b1-3)GlcNAc(b1-3)GalNAc", "procedure,_shortened": "as §1"}, "[22]": {"target": "Gal(b1-3)GlcNAc(b1-6)Gal(b1-4)GlcNAc", "procedure,_shortened": "as §1"}, "[23]": {"target": "Gal(b1-3)GlcNAc(b1-6)GalNAc", "procedure,_shortened": "as §1"}, "[24]": {"target": "Gal(b1-3)GlcNAc(b1-6)[Gal(b1-3)]GalNAc", "procedure,_shortened": "as §1"}, "Gal(b1-3)GlcNAc6S": {"target": "Gal(b1-3)GlcNAc6S", "procedure,_shortened": "as §1"}, "[25]": {"target": "Gal(b1-3)[Fuc(a1-4)]GlcNAc", "procedure,_shortened": "as §1"}, "[26]": {"target": "Gal(b1-3)[Fuc(a1-4)]GlcNAc(b1-2)Man", "procedure,_shortened": "as §1"}, "[27]": {"target": "Gal(b1-3)[Fuc(a1-4)]GlcNAc(b1-2)Man(a1-3)[Gal(b1-3)[Fuc(a1-4)]GlcNAc(b1-2)Man(a1-6)]Man(b1-4)GlcNAc(b1-4)[Fuc(a1-6)]GlcNAc", "procedure,_shortened": "as §1"}, "[28]": {"target": "Gal(b1-3)[Fuc(a1-4)]GlcNAc(b1-3)Gal(b1-3)[Fuc(a1-4)]GlcNAc", "procedure,_shortened": "as §1"}}, "note": "The other results are listed elsewhere or left out."}
{"binder": "Clec12b (Mus musculus), Q149M0 (protein) MSDEVTYATLMLQDSARVRGNQDGNNLRKEGHPAQSSLWRGAALSLMTLCLVLVTGLVTLATMFLQVSNDINSDSEKLSQLQKSIHPQQDNLSESLNSSRKSLTEESLQSQISALLERQEQMATKLCKEFLIHASDHKCNPCPKTWQWYGNSCYYFSINEEKSWSDSRKDCIDKNATLVKIDSTEERDLLQSQLSLTFSFFWLGLSWNSSGRNWLWEDGSFPPPTLFSDKELASFNGSRDCAYFERGNIYASRCSAEIPWICEKTASLVKTEDLD", "values": [{"measurement": "glycan array binding signal (z-score)", "setting": "Gal(a1-6)Glc", "result": 0.18}, {"measurement": "glycan array binding signal (z-score)", "setting": "Gal(b1-2)Gal", "result": 2.74}, {"measurement": "glycan array binding signal (z-score)", "setting": "Gal(b1-3)Gal", "result": -0.168}, {"measurement": "glycan array binding signal (z-score)", "setting": "Gal(b1-3)Gal(b1-4)GlcNAc", "result": -0.695}, {"measurement": "glycan array binding signal (z-score)", "setting": "Gal(b1-3)GalNAc", "result": -0.339}, {"measurement": "glycan array binding signal (z-score)", "setting": "[1]", "result": -0.349}, {"measurement": "glycan array binding signal (z-score)", "setting": "[2]", "result": -0.587}, {"measurement": "glycan array binding signal (z-score)", "setting": "Gal(b1-3)GalNAc(b1-3)Gal", "result": 0.774}, {"measurement": "glycan array binding signal (z-score)", "setting": "[3]", "result": -0.678}, {"measurement": "glycan array binding signal (z-score)", "setting": "[4]", "result": 0.953}, {"measurement": "glycan array binding signal (z-score)", "setting": "[5]", "result": -0.595}, {"measurement": "glycan array binding signal (z-score)", "setting": "Gal(b1-3)GlcNAc", "result": -0.258}, {"measurement": "glycan array binding signal (z-score)", "setting": "[6]", "result": -0.484}, {"measurement": "glycan array binding signal (z-score)", "setting": "[7]", "result": -0.642}, {"measurement": "glycan array binding signal (z-score)", "setting": "Gal(b1-3)GlcNAc(b1-2)Man", "result": 0.051}, {"measurement": "glycan array binding signal (z-score)", "setting": "[8]", "result": 0.301}, {"measurement": "glycan array binding signal (z-score)", "setting": "[9]", "result": 0.132}, {"measurement": "glycan array binding signal (z-score)", "setting": "[10]", "result": 0.058}, {"measurement": "glycan array binding signal (z-score)", "setting": "[11]", "result": 0.213}, {"measurement": "glycan array binding signal (z-score)", "setting": "[12]", "result": -0.725}, {"measurement": "glycan array binding signal (z-score)", "setting": "[13]", "result": -0.698}, {"measurement": "glycan array binding signal (z-score)", "setting": "[14]", "result": -0.41}, {"measurement": "glycan array binding signal (z-score)", "setting": "[15]", "result": 0.818}, {"measurement": "glycan array binding signal (z-score)", "setting": "[16]", "result": -0.055}, {"measurement": "glycan array binding signal (z-score)", "setting": "[17]", "result": -0.153}, {"measurement": "glycan array binding signal (z-score)", "setting": "[18]", "result": -0.533}, {"measurement": "glycan array binding signal (z-score)", "setting": "[19]", "result": -0.727}, {"measurement": "glycan array binding signal (z-score)", "setting": "[20]", "result": -0.636}, {"measurement": "glycan array binding signal (z-score)", "setting": "[21]", "result": -0.326}, {"measurement": "glycan array binding signal (z-score)", "setting": "[22]", "result": -0.521}, {"measurement": "glycan array binding signal (z-score)", "setting": "[23]", "result": -0.588}, {"measurement": "glycan array binding signal (z-score)", "setting": "[24]", "result": -0.057}, {"measurement": "glycan array binding signal (z-score)", "setting": "Gal(b1-3)GlcNAc6S", "result": 0.486}, {"measurement": "glycan array binding signal (z-score)", "setting": "[25]", "result": -0.091}, {"measurement": "glycan array binding signal (z-score)", "setting": "[26]", "result": 0.927}, {"measurement": "glycan array binding signal (z-score)", "setting": "[27]", "result": 3.71}, {"measurement": "glycan array binding signal (z-score)", "setting": "[28]", "result": -0.681}]}
